## Library screen at single concentrations

Measurements from “University of Dundee, Small-Polar-MMV Screening Library” (2021), ChEMBL document CHEMBL3988442.

A: 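Whole-parasite assay of Trypanosoma brucei over 72 hours; the read-out is not stated. Compounds at 30 µM. Direction is inferred from retests: higher values go with stronger inhibition. Values scatter widely below zero; nearly all retest evidence comes from the higher of the two concentrations used. Of about 64,000 compounds tested this way, about 940 (1.5%) reached 50% or more in at least one test.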
B: 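Assay of Toxoplasma gondii numbers, read through their beta-galactosidase reporter with a colour substrate. Tested at 10 µM. The record gives no direction; the compounds picked for IC50 retests had high values, so higher reads as fewer parasites. About 67,000 compounds were tested under these conditions; 0.38% (about 260) showed 50% or more at least once.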

Values are the deposited “Percent Effect”, in %. The controls that fix the scale are not given in the record; negative values are as filed. The compounds are a random part of those screened. A dash means the value is not listed here; it may have been measured.

Compound | A | B
O=C(CCc1ccc(=O)[nH]n1)N1CCCC(COc2ccc(F)cc2)C1 (configuration not stated) | -1.281 | -8.491
NCC1CN(C(=O)c2cccc(-n3cccn3)c2)CCO1 (configuration not stated) | -18.66 | -7.051
CC(C)Oc1ccc(C(=O)N2CCCC2c2cnn(C)c2)cn1 (configuration not stated) | -14.35 | 15.56
COCC(=O)N1CC(c2n[nH]cc2C)C1 | -19.31 | 7.465
COCC(Nc1ncnc2sc(C)c(C)c12)c1ccnn1C (configuration not stated) | -9.029 | 1.323
CS(=O)(=O)c1ccc(OCCNCc2ccc(F)cc2)cc1 | -36.63 | 2.843
CCC(O)CN1CCN(C(=O)c2cccc3[nH]ncc23)CC1 (configuration not stated) | -8.386 | 2.357
c1cc(-c2cn[nH]c2)ncc1CN1CCCCC1 | -44.81 | 10.37
Cc1cc(CNc2cc(Cl)ccc2OCCS(C)(=O)=O)no1 | 17.89 | 26.69
CC(C)N1CCN(C)CC(Cc2cc(N(C)C)ncn2)C1 (configuration not stated) | -5.417 | -2.374
CN(C)c1cccc(C2CCCN2Cc2nnnn2C2CC2)c1 (configuration not stated) | -5.59 | 7.048
CCn1c(Cn2cncn2)nnc1C1CCN(C2CCNCC2)CC1 | 0.108 | -7.608
[H][C@]12CCN[C@@]1([H])CN(C(=O)CC(C)(C)C)C2 | 0.3179 | -11.74
CCn1c(CN2CCCC2)nnc1C1CCN(Cc2cccnc2)CC1 | -29.99 | -9.246
Cc1ccc(Cl)c(CN2CCN(C)C(C(=O)O)C2)c1F (configuration not stated) | -58.06 | 6.747
Cc1c(NC(C)C(C)C)cccc1C(=O)NCc1cnn(C)c1 (configuration not stated) | 13.16 | 1.23
c1ncn(CC2CN(CC3CCCC3)CCO2)n1 (configuration not stated) | -24.7 | 0.3937
COc1ccc(N(Cc2ccco2)C(=O)C2CCOC2)cc1F (configuration not stated) | -6.662 | 13.69
Cc1cc(CN2CCC=C(CN(C)C(=O)c3ccco3)C2)no1 | -7.826 | 5.241
O=C(Nc1ccc(CCN2CCC(O)CC2)cc1)C1CCCCC1 | - | -2.977
[H][C@@]12OCCN(C(=O)c3nn(C)c4ccccc34)[C@@]1([H])CC[C@H]2OC | -41.51 | -12.04
[H][C@@]12C[C@@H](Oc3cccnc3)CN1CCN(C(=O)c1ccnnc1)C2 | -12.59 | 0.9776
CCOCC1CN(C(=O)CS(C)(=O)=O)Cc2cnn(C)c21.O=C(O)C(F)(F)F (configuration not stated) | 9.019 | -0.4274
O=C(c1cncc(Br)c1)N1CCC(O)(Cn2ccc3ccncc32)CC1 | -7.959 | 0.8328
COc1cc(C(=O)NCC2CCCO2)nc2c(C)cc(F)cc12 (configuration not stated) | -6.998 | -
CCN(Cc1csc(CS(C)(=O)=O)n1)c1cccc(F)c1 | -8.728 | -2.791
CC(C)c1nnc(CN2CC(n3cccn3)Cc3ccccc32)o1 (configuration not stated) | -15.76 | -13.44
COc1ccc(C)cc1C(C)NS(=O)(=O)c1ccc2c(c1)CCC(=O)N2 (configuration not stated) | -36.95 | 14.89
Cc1ncccc1Oc1nccnc1C1CCCN(C(C)C)C1 (configuration not stated) | 18.15 | -11.29
Cc1nc(CN2CCCC(CCc3ccccc3C)C2)c[nH]1 (configuration not stated) | -10.1 | -10.72
O=C(O)C(F)(F)F.O=C(c1ccoc1)N1CCCC2(CCC(=O)N2Cc2cccnc2)C1 (configuration not stated) | -31.05 | 11.97
[H][C@@]12CCN(Cc3ccoc3)C[C@@]1([H])O[C@@H](C(=O)NCCOC)C2 | - | 0.4841
CCNc1cc2c(nn1)CCN(C(=O)c1cccc3c1OCCO3)C2 | 25.22 | 4.447
CCn1cc(CN2CCc3nc(-c4ccccn4)nc(O)c3C2)cn1 | 8.218 | 6.567
Cl.c1cnc2c(c1)cc([C@H]1CCCO1)n2CCN1CCOCC1 | 17.64 | 6.983
Cc1ccc(NC(=O)N2CCOC(C(N)=O)C2)cc1C(F)(F)F (configuration not stated) | -45.11 | 0.6364
Cc1cnn(CC2CCCCN2Cc2cc(C)no2)c1 (configuration not stated) | - | -6.387
O=C(CC1CC1)NCc1cn2c(n1)CN(Cc1cccnc1)CC2.O=C(O)C(F)(F)F.O=C(O)C(F)(F)F | -18.77 | 1.224
CN(C)C(=O)CN1CCOCC2(CCN(CC3CCOCC3)CC2)C1.O=C(O)C(F)(F)F.O=C(O)C(F)(F)F | -35.82 | 4.724
CC(NCCc1nccn1Cc1ccccc1)c1ccsc1 (configuration not stated) | -33.6 | -2.84
O=C(c1coc(COc2ccccc2F)n1)N1CCCO1 | -13.61 | 7.98
O=C(c1cccc(OC2CCCC2)c1)N1CCCC(n2cncn2)C1 (configuration not stated) | 10.58 | -4.078
COC(=O)N1CCc2ccccc2C1C(=O)NCc1ccco1 (configuration not stated) | 5.908 | -8.108
COc1cccc(OCCc2cncc(C(N)=O)c2)c1 | -235.2 | 9.23
COCCN1CCN(c2ccc(C)nn2)Cc2cccnc21.O=C(O)C(F)(F)F | -57.78 | -1.888
Cc1cnn(C2CN(CCOc3ccccc3C#N)C2)c1 | -37.07 | -9.367
O=C(O)C1(n2cccn2)CCN(c2nc(-c3ccccc3)no2)CC1 | 5.491 | 12.83
COCCN1CCCC1c1nccnc1Nc1nccs1 (configuration not stated) | 31.23 | 8.302
NC(=O)N1CC(OCc2cccc3ccccc23)C1 | -27.25 | 2.588
CC(C)c1nccn1C1CCCN(C(=O)c2cc(C(N)=O)cs2)C1 (configuration not stated) | - | 5.643
O=C(C1CCCN(C2CCOCC2)C1)N1CCc2ncccc2C1 (configuration not stated) | -11.88 | 0.7497
CCOCC1CN(C(=O)Cc2ccccn2)Cc2c1cnn2CC (configuration not stated) | -19.42 | 1.923
Cc1ccc(S(=O)(=O)N2CCN(CCC#N)CC2)s1 | -14.32 | -9.256
COCCCN1CCC(c2nc3c([nH]2)CC(C)(C)CNC3=O)C1 (configuration not stated) | -39.15 | -6.304
Cc1nc(C)n(CC2CCCN2Cc2cn3ccsc3n2)n1 (configuration not stated) | -15.47 | -15.71

3 of the entries, repeated:

Compound	A	B
O=C(Nc1ccc(CCN2CCC(O)CC2)cc1)C1CCCCC1	-	-2.977
NCC1CN(C(=O)c2cccc(-n3cccn3)c2)CCO1 (configuration not stated)	-18.66	-7.051
O=C(C1CCCN(C2CCOCC2)C1)N1CCc2ncccc2C1 (configuration not stated)	-11.88	0.7497